Laboratory results from PubChem BioAssay (EPA / NIEHS).
The inconclusive results got no clear call from the source; some entries with a clear call stand among them for comparison. Potencies beside an inconclusive call are fits to weak or partial responses and may not hold up. Activity calls are given as the source filed them. The calls were made as follows: active = hit-call score of the fitted dose curve at least 0.9, where 1 is the maximum; inconclusive = response in the unintended direction; inactive = score below 0.9.

The compounds below were run on ABC Transporter (ABCB1), ABCB1 (gene 5243) (assay: CLD_ABCB1_6hr: CellzDirect (CLD) Gene Expression Assay for ABC Transporter (ABCB1) at 6 hours (AID 2283659);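 as to outcome: hits raise ABCB1 transcript above the DMSO vehicle baseline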).
Protocol: CLD_6hr is a cell-based, multiplexed-readout assay that uses hepatocyte, a human liver primary cell, with measurements taken at 6 hours after chemical dosing in a 96-well plate.CLD_ABCB1_6hr is one of 16 assay component(s) measured or calculated from the CLD_6hr assay. It is designed to make measurements of mRNA induction, a form of inducible reporter, as detected with chemiluminescence signals by Quantitative Nuclease Protection Assay (qNPA) technology.Data from the assay component CLD_ABCB1_6hr was analyzed at the endpoint, CLD_ABCB1_6hr, in the positive analysis fitting direction relative to DMSO as the negative control and baseline of activity. Using a type of inducible reporter, gain-of-signal activity can be used to understand changes in the reporter gene as they relate to the gene ABCB1. Furthermore, this assay endpoint can be referred to as a primary readout. To generalize the intended target to other relatable targets, this assay endpoint is annotated to the transporter intended target family, where subfamily is ABC transporter.
Human hepatocyte cultures were treated daily for two consecutive days with fresh dosing solutions containing appropriate concentrations of the 320 ToxCast chemicals (chemical identities were blinded to CellzDirect and other ToxCast collaborators), vehicle control (0.2% DMSO), and positive control inducers as summarized in Table 1. Due to the large number of treatment groups and chemicals examined, the ToxCast chemicals were divided into two groups (spanning two independent cultures of hepatocytes from separate donor preparations (Hu778: ToxCast plates 1 and 2; Hu776: ToxCast plates 3 and 4). Each preparation of human hepatocyte cultures was treated with respective vehicle control, medium only control, set of six positive controls/reference chemicals for the five hepatic receptor pathways, and a subset of eight of the ToxCast chemicals (indoxacarb, pyrithiobac-sodium, norflurazon, cyhalofop-butyl, methomyl, thiram, acetochlor, and propiconazole). These replicate data, coupled with internal replicates designed within the blinded ToxCast chemical library, provided additional data to evaluate interindividual differences between hepatocyte preparations and their potential impact on chemical profiles.Cell morphology and integrity were evaluated using phase-contrast microscopy as an indicator of hepatocyte cell health (Tyson & Green, 1987). Cultures for each treatment group (i.e., media, vehicle [0.2% DMSO], positive control inducers [multiple concentrations], and the ToxCast chemicals [multiple concentrations]) were observed and cell morphology was assessed relative to vehicle control cultures at each harvest time point (0, 6, 24, or 48 h). […] Images were evaluated at the conclusion of the study to assess changes in cell integrity and account for the effects of chemical exposure on uncharacteristic changes in concentration-dependent gene expression profiles. The results from these determinations of apparent cytotoxicity were annotated (yes/no) alongside the corresponding qNPA data for reference.At the conclusion of each treatment period, hepatocyte cultures (96-well) were washed with 1 volume of HBSS, lysed by addition of 25 ul ArrayPlate lysis buffer (HTG, Tucson, AZ), and 70 ul/well of Denaturation Oil, denatured by incubation at 95C for 10 min, and frozen at approximately -70C until analysis by nuclease protection assay (qNPA) (Roberts et al., 2007). For qNPA analysis, cell lysates were thawed at 50C for approximately 30 min, qNPA probes were added, and samples were incubated at 95C for 10 min to begin the detection process by denaturing the target RNA, dissociating the duplexes and secondary structure hybridization. At the conclusion of the hybridization period, S1 nuclease reagent was added to each sample to digest all nonprotected nucleotides at 50C for 60-90 min. […]

SMILES | AC50 | outcome
CC[C@H](C)[C@H]1O[C@]2(C=C[C@@H]1C)C[C@@H]1C[C@@H](C/C=C(\C)[C@@H](O[C@H]3C[C@H](OC)[C@@H](O[C@H]4C[C@H](OC)[C@@H](NC)[C@H](C)O4)[C@H](C)O3)[C@@H](C)/C=C/C=C3\CO[C@@H]4[C@H](O)C(C)=C[C@@H](C(=O)O1)[C@]34O)O2 | inconclusive: 20 µM | –
COc1ccc(-c2ccccc2)cc1NNC(=O)OC(C)C | – | inactive
CC(C)Oc1cccc(NC(=O)c2ccccc2C(F)(F)F)c1 | – | inactive
O=[N+]([O-])c1cc(C(F)(F)F)c(Cl)c([N+](=O)[O-])c1Nc1ncc(C(F)(F)F)cc1Cl | inconclusive: 20 µM | –
CNC(=O)Oc1cccc(N=CN(C)C)c1 | inconclusive: 20 µM | –
CC(C)Oc1cc(-n2nc(C(C)(C)C)oc2=O)c(Cl)cc1Cl | inconclusive: 0.0228 µM | –
CCC(C)(NC(=O)c1cc(Cl)c(C)c(Cl)c1)C(=O)CCl (stereo not given) | – | inactive
CNC(=O)Oc1cccc2ccccc12 | inconclusive: 20 µM | –
Oc1ccccc1-c1ccccc1 | – | inactive
C=C(C)CN(CC)c1c([N+](=O)[O-])cc(C(F)(F)F)cc1[N+](=O)[O-] | – | inactive
COP(=S)(OC)Oc1ccc(SC)c(C)c1 | inconclusive: 20 µM | –
CCOC(=O)C(C)OC(=O)c1cc(Oc2ccc(C(F)(F)F)cc2Cl)ccc1[N+](=O)[O-] (stereo not given) | – | inactive
C#CCOS(=O)OC1CCCCC1Oc1ccc(C(C)(C)C)cc1 (stereo not given) | inconclusive: 20 µM | –
CSc1nnc(C(C)(C)C)c(=O)n1N | – | inactive
CC1(C)C(C(=O)OC(C#N)c2cccc(Oc3ccccc3)c2)C1(C)C (stereo not given) | – | inactive
Clc1nc(Cl)nc(Nc2ccccc2Cl)n1 | inconclusive: 20 µM | –
COc1nc(C)nc(NC(=O)NS(=O)(=O)c2ccccc2Cl)n1 | inconclusive: 0.00611 µM | –
CCOc1nc(F)cc2nc(S(=O)(=O)Nc3c(Cl)cccc3Cl)nn12 | – | inactive
O=[N+]([O-])c1c(Cl)c(Cl)c(Cl)c(Cl)c1Cl | – | inactive
CCc1cccc(CC)c1N(COC)C(=O)CCl | inconclusive: 20 µM | –

2 compounds drawn at random from the list so far:
SMILES | AC50 | outcome
CNC(=O)Oc1cccc(N=CN(C)C)c1 | inconclusive: 20 µM | –
COc1ccc(-c2ccccc2)cc1NNC(=O)OC(C)C | – | inactive

(listing goes on)

SMILES | AC50 | outcome
CC(C)(C)C(O)/C(=C\c1ccc(Cl)cc1Cl)n1cncn1 (stereo not given) | – | inactive
CC(C)(C)C(=O)C(Oc1ccc(Cl)cc1)n1cncn1 (stereo not given) | – | inactive
COP(=O)(OC)SCn1c(=O)oc2cc(Cl)cnc21 | inconclusive: 20 µM | –
Cc1cc(C2CC2)nc(Nc2ccccc2)n1 | inconclusive: 20 µM | –
CC(Oc1ccc(Cl)cc1Cl)C(=O)O (stereo not given) | inconclusive: 20 µM | –
O=[N+]([O-])/N=C1\NCCN1Cc1ccc(Cl)nc1 | – | inactive
O=C1c2ccccc2C(=O)N1SC(Cl)(Cl)Cl | – | inactive
COC(=O)NC(=S)Nc1ccccc1NC(=S)NC(=O)OC | inconclusive: 20 µM | –
Cc1ccn2nc(S(=O)(=O)Nc3c(F)cccc3F)nc2n1 | – | inactive
COc1nn(CSP(=S)(OC)OC)c(=O)s1 | inconclusive: 20 µM | –
[2H]C1([2H])[n+]2ccccc2-c2cccc[n+]2C1([2H])[2H] | inconclusive: 20 µM | –
CON(C)C(=O)Nc1ccc(Cl)c(Cl)c1 | inconclusive: 2.07 µM | –
CCN(CC)c1nc(C)cc(OP(=S)(OC)OC)n1 | inconclusive: 20 µM | –
COP(N)(=O)SC (stereo not given) | inconclusive: 20 µM | –
CC(C)(C)c1ccc(CSc2cnn(C(C)(C)C)c(=O)c2Cl)cc1 | inconclusive: 38 µM | –
CS(=O)(=O)c1cc(C(F)(F)F)ccc1C(=O)c1cnoc1C1CC1 | inconclusive: 20 µM | –
COC(=O)C=C(C)OP(=O)(OC)OC | inconclusive: 3.3 µM | –
O=C(Nc1ccccc1)Nc1cnns1 | inconclusive: 3.38 µM | –
CCCCOC(=O)c1ccccc1C(=O)OCCCC | inconclusive: 20 µM | –
CC1(c2ccc(Oc3ccccc3)cc2)OC(=O)N(Nc2ccccc2)C1=O (stereo not given) | inconclusive: 20 µM | –

Some of the entries so far, comma-delimited:
SMILES,AC50,outcome
CON(C)C(=O)Nc1ccc(Cl)c(Cl)c1,inconclusive: 2.07 µM,–
CCN(CC)c1nc(C)cc(OP(=S)(OC)OC)n1,inconclusive: 20 µM,–
